Test results published in article PMC5355139.
No constants are given. Whether binding was seen depends on the method and setting. Binding seen in cells or lysates may run through a third protein.

The chains behind the UniProt entries cited, without tags or fusion partners.
UniProt P51587: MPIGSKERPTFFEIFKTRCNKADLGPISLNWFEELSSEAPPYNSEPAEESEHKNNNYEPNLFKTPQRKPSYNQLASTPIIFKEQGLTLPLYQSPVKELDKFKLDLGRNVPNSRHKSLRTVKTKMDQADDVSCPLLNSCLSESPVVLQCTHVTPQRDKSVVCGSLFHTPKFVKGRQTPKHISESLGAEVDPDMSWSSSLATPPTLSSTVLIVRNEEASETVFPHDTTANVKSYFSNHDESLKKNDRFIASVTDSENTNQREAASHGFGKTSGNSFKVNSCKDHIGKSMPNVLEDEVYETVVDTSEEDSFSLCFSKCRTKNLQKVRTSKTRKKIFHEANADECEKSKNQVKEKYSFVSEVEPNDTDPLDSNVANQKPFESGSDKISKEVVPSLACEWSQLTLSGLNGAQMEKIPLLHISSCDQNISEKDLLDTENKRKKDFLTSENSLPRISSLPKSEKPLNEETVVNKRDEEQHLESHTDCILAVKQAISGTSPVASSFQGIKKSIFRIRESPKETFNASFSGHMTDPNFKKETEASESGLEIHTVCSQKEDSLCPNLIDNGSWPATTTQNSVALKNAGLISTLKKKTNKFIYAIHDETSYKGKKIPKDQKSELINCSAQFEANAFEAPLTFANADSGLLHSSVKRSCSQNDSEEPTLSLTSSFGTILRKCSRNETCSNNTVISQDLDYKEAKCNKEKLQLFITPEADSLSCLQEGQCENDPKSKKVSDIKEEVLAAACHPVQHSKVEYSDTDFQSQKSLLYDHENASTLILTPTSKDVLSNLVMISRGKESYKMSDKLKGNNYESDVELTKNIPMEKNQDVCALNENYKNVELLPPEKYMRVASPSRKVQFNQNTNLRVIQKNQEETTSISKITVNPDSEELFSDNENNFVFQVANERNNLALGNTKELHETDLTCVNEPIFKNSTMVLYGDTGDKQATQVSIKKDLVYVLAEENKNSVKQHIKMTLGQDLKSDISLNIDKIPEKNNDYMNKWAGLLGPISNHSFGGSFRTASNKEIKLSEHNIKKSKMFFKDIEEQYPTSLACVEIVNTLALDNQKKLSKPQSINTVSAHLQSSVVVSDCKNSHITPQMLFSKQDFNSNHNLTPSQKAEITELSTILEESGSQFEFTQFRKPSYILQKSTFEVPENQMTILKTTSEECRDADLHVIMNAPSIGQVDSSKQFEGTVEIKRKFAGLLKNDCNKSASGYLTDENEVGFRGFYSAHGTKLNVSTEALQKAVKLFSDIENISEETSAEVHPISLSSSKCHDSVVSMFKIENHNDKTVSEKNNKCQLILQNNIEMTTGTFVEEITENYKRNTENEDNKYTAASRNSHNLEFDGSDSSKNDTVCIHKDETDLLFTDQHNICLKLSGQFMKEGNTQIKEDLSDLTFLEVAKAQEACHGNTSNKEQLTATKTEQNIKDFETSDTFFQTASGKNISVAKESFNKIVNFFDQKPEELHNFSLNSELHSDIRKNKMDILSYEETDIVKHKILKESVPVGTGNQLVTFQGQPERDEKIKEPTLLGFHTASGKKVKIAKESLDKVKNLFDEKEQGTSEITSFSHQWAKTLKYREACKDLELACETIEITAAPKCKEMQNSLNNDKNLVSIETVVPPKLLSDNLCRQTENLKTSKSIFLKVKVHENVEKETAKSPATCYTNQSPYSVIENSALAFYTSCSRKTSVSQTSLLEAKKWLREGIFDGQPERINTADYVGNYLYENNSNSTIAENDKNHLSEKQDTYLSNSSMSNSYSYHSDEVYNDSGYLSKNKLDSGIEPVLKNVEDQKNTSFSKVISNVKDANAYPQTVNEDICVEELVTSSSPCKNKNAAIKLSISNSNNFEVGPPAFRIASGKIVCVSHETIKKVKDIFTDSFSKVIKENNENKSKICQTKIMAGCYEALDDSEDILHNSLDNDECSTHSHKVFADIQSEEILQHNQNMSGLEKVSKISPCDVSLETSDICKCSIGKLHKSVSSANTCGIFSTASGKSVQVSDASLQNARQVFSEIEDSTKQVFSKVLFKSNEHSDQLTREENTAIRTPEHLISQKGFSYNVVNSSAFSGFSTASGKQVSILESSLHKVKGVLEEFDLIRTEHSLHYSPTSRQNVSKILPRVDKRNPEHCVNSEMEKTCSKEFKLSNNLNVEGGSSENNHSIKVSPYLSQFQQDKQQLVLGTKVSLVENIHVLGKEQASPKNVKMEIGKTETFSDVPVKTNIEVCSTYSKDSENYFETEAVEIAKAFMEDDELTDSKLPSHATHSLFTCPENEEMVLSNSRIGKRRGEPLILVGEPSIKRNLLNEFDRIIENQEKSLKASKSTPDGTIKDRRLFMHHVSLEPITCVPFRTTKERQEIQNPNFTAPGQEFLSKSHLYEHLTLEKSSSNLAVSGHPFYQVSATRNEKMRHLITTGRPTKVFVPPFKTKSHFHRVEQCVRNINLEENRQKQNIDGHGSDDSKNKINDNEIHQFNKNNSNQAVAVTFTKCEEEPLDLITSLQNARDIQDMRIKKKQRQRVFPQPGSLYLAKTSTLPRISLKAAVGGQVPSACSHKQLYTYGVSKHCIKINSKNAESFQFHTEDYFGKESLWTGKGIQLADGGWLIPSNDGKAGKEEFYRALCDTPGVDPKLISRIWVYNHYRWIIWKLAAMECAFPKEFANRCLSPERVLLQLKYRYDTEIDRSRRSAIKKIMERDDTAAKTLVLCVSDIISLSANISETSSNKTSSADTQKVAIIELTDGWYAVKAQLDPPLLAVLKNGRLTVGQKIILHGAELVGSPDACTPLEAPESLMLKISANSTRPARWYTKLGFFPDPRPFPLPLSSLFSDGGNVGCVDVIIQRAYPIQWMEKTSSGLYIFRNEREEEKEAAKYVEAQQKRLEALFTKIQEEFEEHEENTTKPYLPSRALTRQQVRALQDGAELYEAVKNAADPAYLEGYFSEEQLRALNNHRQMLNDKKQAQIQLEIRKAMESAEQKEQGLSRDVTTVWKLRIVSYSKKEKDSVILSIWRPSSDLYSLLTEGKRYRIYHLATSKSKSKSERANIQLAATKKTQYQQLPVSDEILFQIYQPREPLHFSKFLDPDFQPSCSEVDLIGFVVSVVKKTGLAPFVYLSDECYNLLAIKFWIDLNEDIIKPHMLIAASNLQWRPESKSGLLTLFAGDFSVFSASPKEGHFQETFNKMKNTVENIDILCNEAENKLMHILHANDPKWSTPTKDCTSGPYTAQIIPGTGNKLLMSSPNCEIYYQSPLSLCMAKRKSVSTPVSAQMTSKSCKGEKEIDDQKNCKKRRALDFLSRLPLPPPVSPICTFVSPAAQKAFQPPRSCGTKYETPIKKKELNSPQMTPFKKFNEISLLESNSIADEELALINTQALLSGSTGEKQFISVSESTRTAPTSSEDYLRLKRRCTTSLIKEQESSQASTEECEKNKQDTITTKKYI

Biological target: BRCA2 (human (endogenous; cell line not named, all cell lines of the paper are human)) (UniProt P51587)
Assay: co-IP; EMSY and BRCA2 at endogenous levels; no figure cited; cells and antibodies not stated

- binding: no binding
B1: EMSY (endogenous) (protein, UniProt Q7Z589 1-1322)
chain: MPVVWPTLLDLSRDECKRILRKLELEAYAGVISALRAQGDLTKEKKDLLGELSKVLSISTERHRAEVRRAVNDERLTTIAHNMSGPNSSSEWSIEGRRLVPLMPRLVPQTAFTVTANAVANAAIQHNASLPVPAETGSKEVVCYSYTSTTSTPTSTPVPSGSIATVKSPRPASPASNVVVLPSGSTVYVKSVSCSDEDEKPRKRRRTNSSSSSPVVLKEVPKAVVPVSKTITVPVSGSPKMSNIMQSIANSLPPHMSPVKITFTKPSTQTTNTTTQKVIIVTTSPSSTFVPNILSKSHNYAAVTKLVPTSVIASTTQKPPVVITASQSSLVSNSSSGSSSSTPSPIPNTVAVTAVVSSTPSVVMSTVAQGVSTSAIKMASTRLPSPKSLVSAPTQILAQFPKQHQQSPKQQLYQVQQQTQQQVAQPSPVSHQQQPQQSPLPPGIKPTIQIKQESGVKIITQQVQPSKILPKPVTATLPTSSNSPIMVVSSNGAIMTTKLVTTPTGTQATYTRPTVSPSIGRMAATPGAATYVKTTSGSIITVVPKSLATLGGKIISSNIVSGTTTKITTIPMTSKPNVIVVQKTTGKGTTIQGLPGKNVVTTLLNAGGEKTIQTVPTGAKPAILTATRPITKMIVTQPKGIGSTVQPAAKIIPTKIVYGQQGKTQVLIKPKPVTFQATVVSEQTRQLVTETLQQASRVAEAGNSSIQEGKEEPQNYTDSSSSSTESSQSSQDSQPVVHVIASRRQDWSEHEIAMETSPTIIYQDVSSESQSATSTIKALLELQQTTVKEKLESKPRQPTIDLSQMAVPIQMTQEKRHSPESPSIAVVESELVAEYITTERTDEGTEVAFPLLVSHRSQPQQPSQPQRTLLQHVAQSQTATQTSVVVKSIPASSPGAITHIMQQALSSHTAFTKHSEELGTEEGEVEEMDTLDPQTGLFYRSALTQSQSAKQQKLSQPPLEQTQLQVKTLQCFQTKQKQTIHLQADQLQHKLPQMPQLSIRHQKLTPLQQEQAQPKPDVQHTQHPMVAKDRQLPTLMAQPPQTVVQVLAVKTTQQLPKLQQAPNQPKIYVQPQTPQSQMSLPASSEKQTASQVEQPIITQGSSVTKITFEGRQPPTVTKITGGSSVPKLTSPVTSISPIQASEKTAVSDILKMSLMEAQIDTNVEHMIVDPPKKALATSMLTGEAGSLPSTHMVVAGMANSTPQQQKCRESCSSPSTVGSSLTTRKIDPPAVPATGQFMRIQNVGQKKAEESPAEIIIQAIPQYAIPCHSSSNVVVEPSGLLELNNFTSQQLDDEETAMEQDIDSSTEDGTEPSPSQSSAERS
